Measured values published in PubChem BioAssay AID2685 (National Center for Advancing Translational Sciences (NCATS), 2010).
This is one part of the list. The main result of the screen is listed elsewhere. These columns were measured beside it and carry no call. Most of these compounds were active or inconclusive in the main read-out, so they are no random draw. The note in brackets gives the kind of curve behind each potency; many fits are weak.

Test: qHTS Assay for Lipid Storage Modulators in Drosophila S3 Cells;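 for cell number change: cells counted by Cell Tracker Red CMTPX staining in the red channel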
Details: BODIPY lipid droplet fluorescence, 18-24 h; for cell number change: measured here: cell count max response, cells fed with added oleic acid
In short: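 Drosophila S3 cells got compounds at several concentrations plus oleic acid (400 uM solution). Laser-scanning cytometry with 488 nm excitation read lipid droplets at 500-530 nm and cells at 575-640 nm. Percent activity was relative to 20 uM Triacsin C.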

[1] = measured here: lipid fluorescence (Fed channel) AC50, cells fed with added oleic acid
[2] = measured here: cell number channel AC50, cells fed with added oleic acid

Compound | cell number change [%] | AC50 [1] | AC50 [2]
CCOc1ccccc1CN1CCN(CC2CC2)CC1CCO (centres undefined) | -1.57 | 29.1 µM [rising, single point] | 
Cc1nn(Cc2ccccc2)c(C)c1C(=O)N1CCN(CC(=O)Nc2ccccc2Cl)CC1 | 30.1 | 25.9 µM [rising, single point] | 0.00411 µM [rising, full curve, poor fit]
CCOc1cc(N2CCOCC2)c(OCC)cc1NC(=O)C1=COCCO1 | -6.81 | 3.66 µM [rising, partial curve, poor fit] | 
CCC(=O)Nc1cccc(NC(=O)CSc2nnc(-c3ccc(NS(C)(=O)=O)cc3)n2CC)c1 | 7.82 |  | 
Cn1c(C(=O)N2CCC(C(=O)NCc3ccccc3)CC2)cc2sccc21 | 9.73 | 23.1 µM [rising, single point] | 
O=C(CSCc1c(F)cccc1Cl)Nc1cccnc1 | 1.51 | 0.411 µM [falling, full curve, poor fit] | 0.366 µM [falling, full curve, poor fit]
COc1ccc(N2CCN(C(=O)CC34CC5CC(CC(C5)C3)C4)CC2)c([N+](=O)[O-])c1 | 8.7 | 13 µM [falling, partial curve] | 0.731 µM [falling, single point]
Cc1nonc1NC(=O)CSc1nc2ccccc2cc1C#N | 17.5 | 0.461 µM [rising, partial curve] | 
O=C(CSC1=NCCS1)N1CCCC1 | -15.5 | 0.411 µM [falling, full curve] | 
Nc1ccc2c(c1Cl)C(=O)c1ccc(N)c(Cl)c1C2=O | -1.06 | 29.1 µM [rising, partial curve, poor fit] | 
CCOc1ccc(NC(=O)C2CC(=O)OC2c2ccccc2)cc1 (centres undefined) | -35.3 | 29.1 µM [falling, single point] | 
COc1ccc(S(=O)(=O)N2CCOCC2)cc1Cl | -48.7 | 20.6 µM [falling, single point] | 29.1 µM [falling, single point]
COc1ccc2oc(C(=O)OCC(=O)N(C)C3CCS(=O)(=O)C3)c(C)c2c1 (centres undefined) | 67.2 | 0.146 µM [falling, full curve, poor fit] | 18.4 µM [rising, partial curve, poor fit]
CC(NC(=O)CCC(=O)N1CCCCCC1)c1ccccc1 (centres undefined) | 13.5 |  | 
COc1cccc(NC(=O)CSc2nc3c([nH]c4ccccc43)c(=O)n2C)c1 | 0.944 | 0.146 µM [rising, full curve] | 0.366 µM [rising, partial curve]

Full records, looked up by structure.
Cc1nonc1NC(=O)CSc1nc2ccccc2cc1C#N in the list: cell number change [%]: 17.5; AC50 [1]: 0.461 µM [rising, partial curve]
CCOc1ccccc1CN1CCN(CC2CC2)CC1CCO (centres undefined) in the list: cell number change [%]: -1.57; AC50 [1]: 29.1 µM [rising, single point]
